Measurements taken from patent publication US9034868B2 (priority 2008, dated 2015).
Some entries share one result that the patent states for a list of compounds.

Tests used:
[1] = system: Stx1 and Stx2
[2] = system: StxB; format: cell-based

With `CCC(=O)N1CC(=O)Nc2ccc(Br)cc2C1c1ccccc1` (centres unmarked) [Compound 193, 7-bromo-5-phenyl-4-propionyl-4,5-dihydro-1H-benzo[e][1,4]diazepin-2(3H)-one] the “higher dose of Stxs needed for a similar level of protein biosynthesis inhibition as in control cells” value [1] was 50-100 × and the “reduction of retrograde transport of STxB to the TGN” value [2] was 60-90%.
